{"source": "PubChem BioAssay (NCATS)", "key": {"[1]": {"test": "Quantitative High-Throughput drug screen in 47 multiple myeloma cell lines against the NCATS MIPE library collection: OPM2_DSMZ cell viability assay (AID 1919872); also: potency is read from the fitted curve at half-maximal effect; nearly all actives have a fitted effect of over 30% in size", "outline": "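Approved and investigational drugs from MIPE 4.0 were added by pin tool to 500 cells per well. After 48 hours at 37C, ATP-based CellTiter-Glo luminescence indicated remaining viability.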"}, "[2]": {"test": "qHTS for identification of novel therapeutic agents for treatment of microphthalmiaassociated transcription factor (MiT) renal cell carcinoma (RCC) (AID 1963991; calls by dose curve; also: potency is read from the fitted curve at half-maximal effect)", "settings": "TFE3-RCC UOK109 viability, CellTiter-Glo, 48 h; active = Z-AUC below -0.8 in all three lines", "outline": "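UOK109/UOK124/UOK145 (TFE3 fusions, three partners); 500 cells/well; MIPE v4.0, 1912 cpds, 11 conc.; 48 h, 37 C; CellTiter-Glo, 15 min RT; lum. Norm.: DMSO 100%, empty 0%.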"}, "[3]": {"test": "Quantitative High-Throughput drug screen in 47 multiple myeloma cell lines against the NCATS MIPE library collection: RPMI8226_ATCC cell viability assay (AID 1919871); also: nearly all actives have a fitted effect of over 30% in size; also: potency is read from the fitted curve at half-maximal effect", "settings": "RPMI8226 myeloma viability, CellTiter-Glo ATP luminescence, 48 h", "outline": "(§1)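 Myeloma cells (500/well) treated with MIPE 4.0 compounds for 48 h at 37 °C, 5% CO2. Viability read as ATP via CellTiter-Glo luminescence after 5 min at RT; DMSO-only wells = 100%, media-only = 0% viability.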"}, "[4]": {"test": "Quantitative High-Throughput drug screen in 47 multiple myeloma cell lines against the NCATS MIPE library collection: KMS11_JCRBsus cell viability assay (AID 1919873)", "outline": "as §1"}, "[5]": {"test": "Quantitative High-Throughput drug screen in 47 multiple myeloma cell lines against the NCATS MIPE library collection: KMS28BM_JCRB cell viability assay (AID 1919874)", "settings": "CellTiter-Glo ATP, 48 h", "outline": "as §1"}, "7G8": {"tested_on": "7G8", "test": "qHTS profiling for inhibitors of Plasmodium falciparum proliferation (AID 504749)", "settings": "P. falciparum in erythrocytes, SYBR Green DNA, 72 h; series mostly up to 28.7 µM", "outline": "(§2)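 P. falciparum-infected erythrocytes (0.3% parasitemia, 2.5% hematocrit final) were exposed to compounds for 72 h at 37 C in 5% CO2, then lysed with SYBR Green buffer overnight at room temperature; parasite DNA fluorescence was normalized to artemisinin and DMSO controls.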"}, "[6]": {"test": "Quantitative High-Throughput drug screen in 47 multiple myeloma cell lines against the NCATS MIPE library collection: PCM6_Riken cell viability assay (AID 1919870)", "outline": "as §1"}, "3D7": {"tested_on": "3D7", "test": "qHTS profiling for inhibitors of Plasmodium falciparum proliferation (AID 504749)", "settings": "P. falciparum in erythrocytes, SYBR Green DNA, 72 h; series mostly up to 28.7 µM", "outline": "as §2"}}, "note": "The shares of active, inactive and inconclusive entries below differ from those in the screen. Potencies beside an inconclusive call are fits to weak or partial responses and may not hold up. The source made the active and inactive calls. Unless noted, calls follow the shape of the dose curve; as a rule, active = well fitted curve in the direction sought with a large enough effect; inconclusive = small, poorly fitted or top-dose-only effect, or another doubt; inactive = no such curve, though single readings can be large; an effect the other way counts as inactive or inconclusive. Where a SMILES comes first, the peptide text is derived from it. [ ]: non-standard residue; d: D form. The star is where a group is joined. Nva = CCC[C@H](N)C(=O)O; Cbz = O=C(OCc1ccccc1)*"}
{"smiles": "Nc1ccccc1NC(=O)c1ccc(CNc2nccc(-c3cccnc3)n2)cc1", "values": [{"measurement": "Potency", "setting": "[1]", "value": "active: 2.64 µM"}, {"measurement": "Potency", "setting": "[2]", "value": "inconclusive: 2.35 µM [falling, partial curve]"}]}
{"smiles": "CNC(=O)c1ccc2c(C(=Nc3cccc(CN(C)C)c3)c3ccccc3)c(O)[nH]c2c1", "values": [{"measurement": "Potency", "setting": "[3]", "value": "active: 13.2 µM"}, {"measurement": "Potency", "setting": "[2]", "value": "inconclusive: 9.35 µM [falling, partial curve, poor fit]"}]}
{"smiles": "CCN(CC)Cc1ccc2cc(COC(=O)Nc3ccc(C(=O)NO)cc3)ccc2c1", "values": [{"measurement": "Potency", "setting": "[4]", "value": "active: 0.526 µM"}, {"measurement": "Potency", "setting": "[2]", "value": "inconclusive: 2.96 µM [falling, full curve]"}]}
{"smiles": "Cc1cnc(Nc2ccc(N3CCN(C)CC3)cc2)nc1Nc1cccc(S(=O)(=O)NC(C)(C)C)c1", "values": [{"measurement": "Potency", "setting": "[2]", "value": "inconclusive: 4.18 µM [falling, partial curve]"}]}
{"smiles": "CC=C1NC(=O)[C@H]2CSSCCC=C[C@H](CC(=O)N[C@H](C(C)C)C(=O)N2)OC(=O)[C@H](C(C)C)NC1=O", "values": [{"measurement": "Potency", "setting": "[1]", "value": "active: 0.0296 µM"}, {"measurement": "Potency", "setting": "[4]", "value": "active: 0.0187 µM"}, {"measurement": "Potency", "setting": "[5]", "value": "active: 0.0166 µM"}, {"measurement": "Potency", "setting": "[2]", "value": "active: 0.0332 µM"}]}
{"smiles": "COc1ccc(CCN(C)CCCC(C#N)(c2ccc(OC)c(OC)c2)C(C)C)cc1OC", "note": "(stereo not drawn)", "values": [{"measurement": "Potency", "setting": "7G8", "value": "inconclusive: 1.41 µM [inhibitor, partial curve]"}]}
{"smiles": "CNC(=O)c1cc(Oc2ccc(NC(=O)Nc3ccc(Cl)c(C(F)(F)F)c3)cc2)ccn1", "values": [{"measurement": "Potency", "setting": "[6]", "value": "active: 7.43 µM"}, {"measurement": "Potency", "setting": "[1]", "value": "inconclusive: 33.2 µM [cytotoxic, single point]"}, {"measurement": "Potency", "setting": "[2]", "value": "inconclusive: 23.5 µM [falling, single point]"}, {"measurement": "Potency", "setting": "3D7", "value": "inconclusive: 11.2 µM [inhibitor, single point]"}]}
{"smiles": "CC(C=CC(=O)NO)=C[C@@H](C)C(=O)c1ccc(N(C)C)cc1", "values": [{"measurement": "Potency", "setting": "[2]", "value": "inconclusive: 2.35 µM [falling, full curve]"}]}
{"smiles": "CCCCN1CCC(CNC(=O)c2c3n(c4ccccc24)CCCO3)CC1", "values": [{"measurement": "Potency", "setting": "[6]", "value": "active: 3.32 µM"}, {"measurement": "Potency", "setting": "[3]", "value": "inconclusive: 18.7 µM [cytotoxic, partial curve]"}, {"measurement": "Potency", "setting": "[1]", "value": "inconclusive: 26.4 µM [cytotoxic, single point]"}, {"measurement": "Potency", "setting": "[5]", "value": "inconclusive: 20.9 µM [cytotoxic, partial curve]"}, {"measurement": "Potency", "setting": "[2]", "value": "inconclusive: 2.96 µM [falling, full curve]"}]}
{"smiles": "COc1ccc(-c2cc3nccn3c(Nc3ncccc3C(N)=O)n2)cc1OC", "values": [{"measurement": "Potency", "setting": "[3]", "value": "inactive"}, {"measurement": "Potency", "setting": "[4]", "value": "active: 4.69 µM"}, {"measurement": "Potency", "setting": "[2]", "value": "inconclusive: 0.833 µM [falling, partial curve, poor fit]"}]}
{"smiles": "NCc1c[nH]c(=S)n1[C@H]1CCc2c(F)cc(F)cc2C1", "values": [{"measurement": "Potency", "setting": "[1]", "value": "inconclusive: 23.5 µM [cytotoxic, partial curve]"}, {"measurement": "Potency", "setting": "[2]", "value": "inconclusive: 23.5 µM [falling, single point]"}]}
{"smiles": "O=C(CC12CC3CC(CC(C3)C1)C2)Nc1cccc2nc(NCCNCCO)ccc12", "values": [{"measurement": "Potency", "setting": "[3]", "value": "inconclusive: 20.9 µM [cytotoxic, partial curve]"}, {"measurement": "Potency", "setting": "[1]", "value": "inconclusive: 37.2 µM [cytotoxic, single point]"}, {"measurement": "Potency", "setting": "[2]", "value": "inconclusive: 23.5 µM [falling, partial curve]"}]}
{"smiles": "CCCCC(=O)O[C@]1(C(=O)CO)[C@@H](C)C[C@H]2[C@@H]3CCC4=CC(=O)C=C[C@]4(C)[C@@]3(F)[C@@H](O)C[C@@]21C", "values": [{"measurement": "Potency", "setting": "[6]", "value": "inconclusive: 20.9 µM [cytotoxic, partial curve]"}, {"measurement": "Potency", "setting": "[4]", "value": "inconclusive: 0.0148 µM [cytotoxic, full curve]"}]}
{"smiles": "COc1cc2c(Nc3ccc(NC(=O)c4ccccc4)cc3)ncnc2cc1OCCCN1CCOCC1", "values": [{"measurement": "Potency", "setting": "[3]", "value": "active: 23.5 µM"}, {"measurement": "Potency", "setting": "[1]", "value": "inconclusive: 23.5 µM [cytotoxic, partial curve]"}, {"measurement": "Potency", "setting": "[5]", "value": "inconclusive: 33.2 µM [cytotoxic, partial curve, poor fit]"}, {"measurement": "Potency", "setting": "[2]", "value": "inconclusive: 26.4 µM [falling, single point]"}]}
{"smiles": "Fc1ccc(C(c2ccc(F)cc2)N2CCN(CC=Cc3ccccc3)CC2)cc1", "values": [{"measurement": "Potency", "setting": "[6]", "value": "active: 5.9 µM"}, {"measurement": "Potency", "setting": "[4]", "value": "inconclusive: 23.5 µM [cytotoxic, partial curve]"}, {"measurement": "Potency", "setting": "[5]", "value": "inconclusive: 29.6 µM [cytotoxic, partial curve, poor fit]"}, {"measurement": "Potency", "setting": "[2]", "value": "inconclusive: 37.2 µM"}]}
{"smiles": "CN(C)CC(=O)N1CCC(c2ccc(NC(=O)c3ncc(C#N)[nH]3)c(C3=CCCCC3)c2)CC1", "values": [{"measurement": "Potency", "setting": "[6]", "value": "active: 14.8 µM"}, {"measurement": "Potency", "setting": "[3]", "value": "inactive"}, {"measurement": "Potency", "setting": "[2]", "value": "inconclusive: 20.9 µM [falling, partial curve]"}]}
{"smiles": "CNC(=O)c1cccc(-c2ccc3c(N4CCOC[C@H]4C)nc(N4CCOC[C@H]4C)nc3n2)c1", "values": [{"measurement": "Potency", "setting": "[6]", "value": "active: 0.118 µM"}, {"measurement": "Potency", "setting": "[4]", "value": "inconclusive: 0.0105 µM [cytotoxic, full curve]"}, {"measurement": "Potency", "setting": "[5]", "value": "inconclusive: 0.0526 µM [cytotoxic, full curve]"}, {"measurement": "Potency", "setting": "[2]", "value": "inconclusive: 0.166 µM [falling, full curve]"}]}
{"smiles": "CNC1CCC(N(Cc2cccc(-c3ccncc3)c2)C(=O)c2sc3ccccc3c2Cl)CC1", "note": "(stereo not drawn)", "values": [{"measurement": "Potency", "setting": "[1]", "value": "inconclusive: 33.2 µM [cytotoxic, single point]"}, {"measurement": "Potency", "setting": "[4]", "value": "active: 8.33 µM"}, {"measurement": "Potency", "setting": "[2]", "value": "inconclusive: 33.2 µM [falling, partial curve, poor fit]"}]}
{"smiles": "Cc1ccc(-c2ncn(-c3ccc(Nc4nccc(-c5cccc(N6CCOCC6)c5)n4)cc3)n2)cn1", "values": [{"measurement": "Potency", "setting": "[5]", "value": "active: 0.0743 µM"}, {"measurement": "Potency", "setting": "[2]", "value": "active: 0.264 µM"}]}
{"smiles": "COc1cc2c(cc1OC)[C@@H]1C(=O)c3ccc4c(c3O[C@@H]1CO2)C=CC(C)(C)O4", "values": [{"measurement": "Potency", "setting": "[3]", "value": "inconclusive: 23.5 µM [cytotoxic, single point]"}, {"measurement": "Potency", "setting": "[1]", "value": "inconclusive: 26.4 µM [cytotoxic, single point]"}, {"measurement": "Potency", "setting": "[2]", "value": "inconclusive: 29.6 µM [falling, partial curve, poor fit]"}]}
{"smiles": "CCC[C@@H](C=O)NC(=O)[C@H](CC(C)C)NC(=O)[C@H](CC(C)C)NC(=O)OCc1ccccc1", "note": "(Cbz-Leu-Leu-[Nva]-aldehyde)", "values": [{"measurement": "Potency", "setting": "[3]", "value": "active: 1.32 µM"}, {"measurement": "Potency", "setting": "[4]", "value": "active: 0.148 µM"}, {"measurement": "Potency", "setting": "[2]", "value": "active: 4.18 µM"}]}
{"smiles": "NC(=O)Nc1cc(-c2cccc(F)c2)sc1C(=O)N[C@H]1CCCNC1", "values": [{"measurement": "Potency", "setting": "[3]", "value": "inconclusive: 6.62 µM [cytotoxic, partial curve]"}, {"measurement": "Potency", "setting": "[2]", "value": "active: 0.935 µM"}]}
{"smiles": "COc1ccc(-c2ccc3c(N4CCOC[C@H]4C)nc(N4CCOC[C@H]4C)nc3n2)cc1CO", "values": [{"measurement": "Potency", "setting": "[3]", "value": "inconclusive: 0.0074 µM [cytotoxic, full curve]"}, {"measurement": "Potency", "setting": "[4]", "value": "inconclusive: 0.0083 µM [cytotoxic, full curve]"}, {"measurement": "Potency", "setting": "[2]", "value": "active: 0.0935 µM"}]}
